Values of other authors, collected in article PMC11973072, “Computational screening for novel α-glucosidase inhibitory peptides from Chlamys nobilis adductor muscle as a potential antidiabetic agent” (Frontiers in Nutrition, 2025).

Protein sequences, listed by entry. Tags and fused reporters are not part of them.
UniProt P53341, whole entry: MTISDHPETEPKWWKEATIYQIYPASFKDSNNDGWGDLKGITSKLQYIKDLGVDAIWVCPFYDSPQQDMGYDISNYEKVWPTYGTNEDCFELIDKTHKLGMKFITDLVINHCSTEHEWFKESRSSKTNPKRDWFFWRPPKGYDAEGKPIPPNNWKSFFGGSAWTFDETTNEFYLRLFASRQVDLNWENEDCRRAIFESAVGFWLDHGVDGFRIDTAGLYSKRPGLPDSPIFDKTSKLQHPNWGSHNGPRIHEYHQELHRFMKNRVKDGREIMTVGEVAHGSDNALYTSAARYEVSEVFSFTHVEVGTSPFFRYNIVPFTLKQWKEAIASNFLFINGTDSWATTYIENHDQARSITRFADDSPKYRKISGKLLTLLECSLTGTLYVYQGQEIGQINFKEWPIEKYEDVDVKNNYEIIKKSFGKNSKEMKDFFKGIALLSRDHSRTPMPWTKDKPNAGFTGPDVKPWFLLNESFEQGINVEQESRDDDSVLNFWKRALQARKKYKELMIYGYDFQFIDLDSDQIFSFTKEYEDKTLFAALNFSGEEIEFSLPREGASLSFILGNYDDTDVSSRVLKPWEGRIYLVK

Molecular target: α-glucosidase (Saccharomyces cerevisiae, UniProt P53341)
Settings: read-out: IC50 value for α-glucosidase inhibition; from almond oil production residues; cited from earlier work

**Q.** For N[C@@H](Cc1c[nH]c2ccccc12)C(=O)N[C@@H](Cc1c[nH]cn1)C(=O)O, which IC50 is on record?
**A.** The IC50 was 17 µM.

The match of structure and compound is tentative.
